{"source": "patent US20090220435A1", "about": "“TIGHT JUNCTION MODULATING PEPTIDE COMPONENTS FOR ENHANCING MUCOSAL DELIVERY OF THERAPEUTIC AGENTS” (priority 2005, published 2009)", "system": "EpiAirway™ human-derived tracheal/bronchial epithelial cells", "test": "Transepithelial electrical resistance (TER) across EpiAirway epithelial cell layer", "type": "cell-based", "note": "Some results were stated once for a whole list of compounds, not compound by compound.", "data": [{"substance": "H-LLETLLKPFQCRICMRNFSTRQARRNHRRRHRR-NH2 (cysteine pairing not given here) [PN202]", "values": [{"measurement": "TER reduction (highest within the concentration range tested)", "value": "> 90", "unit": "%"}]}, {"substance": "Maleimide-GLGSLLKKAGKLKLKQPKSKRKV-amide (GLGSLLKKAGKKLKQPKSKRKV; N-terminal maleimide, C-terminal amide) [PN283]", "values": [{"measurement": "TER reduction (highest within the concentration range tested)", "value": "> 90", "unit": "%"}]}]}
